Results: patent EP4692123A1, “ANTI-BCAM ANTIBODY AND ANTIBODY-DRUG CONJUGATE” (priority 2023, dated 2024)
Results are given in words; binding and its absence hold for the method and conditions named. Some binding calls cover weakened binding; strength is not graded here.

What was measured:
[1] = target: T1, human BCAM antigen protein expressed on the cell surface (human) (UniProt P50895); assay: flow cytometry on HEK293FT cells transfected with human BCAM
T1 sequence (looked up): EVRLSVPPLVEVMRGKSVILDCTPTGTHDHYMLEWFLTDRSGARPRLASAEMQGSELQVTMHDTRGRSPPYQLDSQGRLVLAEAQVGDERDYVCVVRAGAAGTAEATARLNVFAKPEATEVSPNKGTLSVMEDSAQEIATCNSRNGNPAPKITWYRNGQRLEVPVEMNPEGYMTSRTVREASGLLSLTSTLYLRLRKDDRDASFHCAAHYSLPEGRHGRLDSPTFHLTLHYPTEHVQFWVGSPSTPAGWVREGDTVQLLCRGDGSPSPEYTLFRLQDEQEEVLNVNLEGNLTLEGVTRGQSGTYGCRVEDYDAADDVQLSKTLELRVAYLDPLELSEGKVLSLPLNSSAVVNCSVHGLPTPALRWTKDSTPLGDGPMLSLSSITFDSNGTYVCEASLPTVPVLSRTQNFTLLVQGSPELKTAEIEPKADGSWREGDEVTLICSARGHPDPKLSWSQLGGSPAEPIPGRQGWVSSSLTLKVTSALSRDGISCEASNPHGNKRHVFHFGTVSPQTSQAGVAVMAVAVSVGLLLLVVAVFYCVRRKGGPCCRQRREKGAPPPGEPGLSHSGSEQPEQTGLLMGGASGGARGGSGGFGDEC

[2] = target: T1, human BCAM antigen protein expressed on the cell surface (human); assay: confocal microscopy of SK-BR-3 cells, 10 µg/mL antibody, 4°C for 1 hour

B1: Ab-I antibody (anti-BCAM human IgG4 antibody) (antibody, V domains shown)
VH: EVQLVESGGGLVKPGGSLRLSCAASGFTFSSYSMNWVRQAPGKGLEWVSSISSSSSYIYYADSVKGRFTISRDNAKNSLYLQMNSLRAEDTAVYYCARIIGGWLGDYWGQGTLVTVSS
VL: NIQMTQSPSSVSASVGDRVTITCRASQGISSWLAWYQQKPGKAPKLLIYAASSLRSGVPSRFSGSGSGTDFTLTISSLQPEDFATYYCQQANSFPPPTFGGGTKVEIK
notes: From a human scFv phage library, expressed in ExpiCHO-S
binding [1]: binds
binding [2]: binds
